Reference: doi:10.1101/2025.01.05.631353 (bioRxiv, 2025)
Results are given in words; binding and its absence hold for the method and conditions named. Some binding calls cover weakened binding; strength is not graded here.

Protein sequences, listed by entry. Tags and fused reporters are not part of them. Lines headed by an entry give the natural chain unless they say otherwise; changes in a name come on top.
UniProt P29067: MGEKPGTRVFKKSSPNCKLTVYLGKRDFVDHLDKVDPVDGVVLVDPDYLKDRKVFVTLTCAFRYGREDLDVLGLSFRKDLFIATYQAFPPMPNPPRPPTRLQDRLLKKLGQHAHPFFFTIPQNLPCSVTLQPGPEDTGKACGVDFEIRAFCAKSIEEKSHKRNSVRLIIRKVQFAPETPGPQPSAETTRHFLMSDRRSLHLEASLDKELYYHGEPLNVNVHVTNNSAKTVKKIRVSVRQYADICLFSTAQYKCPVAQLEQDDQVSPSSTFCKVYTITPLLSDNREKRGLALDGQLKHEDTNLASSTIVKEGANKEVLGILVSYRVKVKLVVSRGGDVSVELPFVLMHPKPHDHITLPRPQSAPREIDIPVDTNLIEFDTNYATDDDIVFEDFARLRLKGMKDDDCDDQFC
UniProt P25106: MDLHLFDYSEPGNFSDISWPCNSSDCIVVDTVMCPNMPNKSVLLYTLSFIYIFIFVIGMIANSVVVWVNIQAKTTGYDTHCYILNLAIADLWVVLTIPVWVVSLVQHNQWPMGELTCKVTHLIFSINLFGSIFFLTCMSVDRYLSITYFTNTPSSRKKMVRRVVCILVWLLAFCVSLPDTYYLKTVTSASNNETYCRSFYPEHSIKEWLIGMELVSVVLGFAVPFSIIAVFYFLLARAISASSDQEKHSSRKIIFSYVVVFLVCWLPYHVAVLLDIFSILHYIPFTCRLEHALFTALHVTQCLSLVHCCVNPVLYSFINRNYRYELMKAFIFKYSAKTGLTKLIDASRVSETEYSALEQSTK

Tests used:
[1] = biological target: β-arrestin2 (UniProt P29067); assay: HDX-MS
[2] = biological target: β-arrestin2 (UniProt P29067); assay: ITC

Substance: C7pp2, phosphopeptide derived from the carboxyl terminus of CXCR7 (residues 346-359) (from UniProt P25106 346-359)
- binding [1]: binds
- binding [2]: binds
